{"source": "PubChem BioAssay AID1224830 (NIAID, 2016)", "test": "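Regulators of TLR4 signalling towards TNF-alpha in macrophage-like cells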 (primary screen)", "system": "human THP-1 monocytic leukaemia cells, TNF dual-luciferase reporter clone, PMA-differentiated to macrophage-like cells", "reagent": "siRNA pool against human genes, 50 nM", "duration": "LPS for 4 h, given about 3 days after siRNA transfection", "challenge": "bacterial LPS (TLR4 ligand), 10 ng/ml", "read-out": "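Ratio of firefly to renilla light, scaled to the plate median and expressed as a robust z-score per replicate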", "direction": "TNF reporter robust z-score: higher = stronger TNF reporter response to LPS", "call rule": "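a well is active when its z-score exceeds 2.8 or falls below -1.5; control wells carry no call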", "note": "The deposit covers about 18,000 reagents; this is a random part of them. In the full data, about 2,900 (16%) are marked active. 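Calls are made per well; low scores hint the gene aids the LPS response, high scores that it dampens it.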 Unmarked entries are inactive. Repeated entries: four replicate wells of each siRNA pool. Reagent sequences are not shown."}
{"gene knocked down": "UGT2A3", "TNF reporter robust z-score": -0.77}
{"gene knocked down": "UGT2A3", "TNF reporter robust z-score": -0.2}
{"gene knocked down": "UGT2A3", "TNF reporter robust z-score": -0.78}
{"gene knocked down": "UGT2A3", "TNF reporter robust z-score": -0.8}
{"gene knocked down": "ESAM", "TNF reporter robust z-score": 2.49}
{"gene knocked down": "ESAM", "TNF reporter robust z-score": "2.9 (active)"}
{"gene knocked down": "ESAM", "TNF reporter robust z-score": 0.43}
{"gene knocked down": "ESAM", "TNF reporter robust z-score": 1.76}
{"gene knocked down": "FBXW5", "TNF reporter robust z-score": "3.12 (active)"}
{"gene knocked down": "FBXW5", "TNF reporter robust z-score": -0.59}
{"gene knocked down": "FBXW5", "TNF reporter robust z-score": -0.84}
{"gene knocked down": "FBXW5", "TNF reporter robust z-score": 0.1}
{"gene knocked down": "CINP", "TNF reporter robust z-score": "-1.74 (active)"}
{"gene knocked down": "CINP", "TNF reporter robust z-score": "-2.02 (active)"}
{"gene knocked down": "CINP", "TNF reporter robust z-score": "-1.89 (active)"}
{"gene knocked down": "CINP", "TNF reporter robust z-score": "-1.94 (active)"}
{"gene knocked down": "ZBTB11", "TNF reporter robust z-score": -1.05}
{"gene knocked down": "ZBTB11", "TNF reporter robust z-score": -0.7}
{"gene knocked down": "ZBTB11", "TNF reporter robust z-score": -1.44}
{"gene knocked down": "ZBTB11", "TNF reporter robust z-score": -0.48}
{"gene knocked down": "BRINP2", "TNF reporter robust z-score": 1.08}
{"gene knocked down": "BRINP2", "TNF reporter robust z-score": 0.1}
{"gene knocked down": "BRINP2", "TNF reporter robust z-score": 1.3}
{"gene knocked down": "BRINP2", "TNF reporter robust z-score": 2.16}
{"gene knocked down": "LORICRIN", "TNF reporter robust z-score": -1.33}
{"gene knocked down": "LORICRIN", "TNF reporter robust z-score": -1}
{"gene knocked down": "LORICRIN", "TNF reporter robust z-score": -0.97}
{"gene knocked down": "LORICRIN", "TNF reporter robust z-score": 0}
{"gene knocked down": "POU6F1", "TNF reporter robust z-score": -0.43}
{"gene knocked down": "POU6F1", "TNF reporter robust z-score": 1.18}
{"gene knocked down": "POU6F1", "TNF reporter robust z-score": 1.26}
{"gene knocked down": "POU6F1", "TNF reporter robust z-score": -0.06}
{"gene knocked down": "FTL", "TNF reporter robust z-score": 1.75}
{"gene knocked down": "FTL", "TNF reporter robust z-score": -0.66}
{"gene knocked down": "FTL", "TNF reporter robust z-score": -0.44}
{"gene knocked down": "FTL", "TNF reporter robust z-score": 0.87}
{"gene knocked down": "PCNT", "TNF reporter robust z-score": 0.7}
{"gene knocked down": "PCNT", "TNF reporter robust z-score": 0.49}
{"gene knocked down": "PCNT", "TNF reporter robust z-score": -0.09}
{"gene knocked down": "PCNT", "TNF reporter robust z-score": -1.07}
{"gene knocked down": "HOXD10", "TNF reporter robust z-score": -1.04}
{"gene knocked down": "HOXD10", "TNF reporter robust z-score": -0.3}
{"gene knocked down": "HOXD10", "TNF reporter robust z-score": -0.27}
{"gene knocked down": "HOXD10", "TNF reporter robust z-score": 0.83}
{"gene knocked down": "PRSS27", "TNF reporter robust z-score": -1.25}
{"gene knocked down": "PRSS27", "TNF reporter robust z-score": -0.69}
{"gene knocked down": "PRSS27", "TNF reporter robust z-score": -0.07}
{"gene knocked down": "PRSS27", "TNF reporter robust z-score": 0.15}

Reagents above with an active call (6):
{"gene knocked down": "ESAM", "TNF reporter robust z-score": "2.9 (active)"}
{"gene knocked down": "FBXW5", "TNF reporter robust z-score": "3.12 (active)"}
{"gene knocked down": "CINP", "TNF reporter robust z-score": "-1.74 (active)"}
{"gene knocked down": "CINP", "TNF reporter robust z-score": "-2.02 (active)"}
{"gene knocked down": "CINP", "TNF reporter robust z-score": "-1.89 (active)"}
{"gene knocked down": "CINP", "TNF reporter robust z-score": "-1.94 (active)"}
